Data from article PMC6089883.
Results are given in words; binding and its absence hold for the method and conditions named. Binding seen in cells or lysates may run through a third protein. Some binding calls cover weakened binding; strength is not graded here. Tags and fused reporters may be left off the sequences shown. One block for each molecule: values may come before it.

Protein sequences, listed by entry. Tags and fused reporters are not part of them.
UniProt Q59U81: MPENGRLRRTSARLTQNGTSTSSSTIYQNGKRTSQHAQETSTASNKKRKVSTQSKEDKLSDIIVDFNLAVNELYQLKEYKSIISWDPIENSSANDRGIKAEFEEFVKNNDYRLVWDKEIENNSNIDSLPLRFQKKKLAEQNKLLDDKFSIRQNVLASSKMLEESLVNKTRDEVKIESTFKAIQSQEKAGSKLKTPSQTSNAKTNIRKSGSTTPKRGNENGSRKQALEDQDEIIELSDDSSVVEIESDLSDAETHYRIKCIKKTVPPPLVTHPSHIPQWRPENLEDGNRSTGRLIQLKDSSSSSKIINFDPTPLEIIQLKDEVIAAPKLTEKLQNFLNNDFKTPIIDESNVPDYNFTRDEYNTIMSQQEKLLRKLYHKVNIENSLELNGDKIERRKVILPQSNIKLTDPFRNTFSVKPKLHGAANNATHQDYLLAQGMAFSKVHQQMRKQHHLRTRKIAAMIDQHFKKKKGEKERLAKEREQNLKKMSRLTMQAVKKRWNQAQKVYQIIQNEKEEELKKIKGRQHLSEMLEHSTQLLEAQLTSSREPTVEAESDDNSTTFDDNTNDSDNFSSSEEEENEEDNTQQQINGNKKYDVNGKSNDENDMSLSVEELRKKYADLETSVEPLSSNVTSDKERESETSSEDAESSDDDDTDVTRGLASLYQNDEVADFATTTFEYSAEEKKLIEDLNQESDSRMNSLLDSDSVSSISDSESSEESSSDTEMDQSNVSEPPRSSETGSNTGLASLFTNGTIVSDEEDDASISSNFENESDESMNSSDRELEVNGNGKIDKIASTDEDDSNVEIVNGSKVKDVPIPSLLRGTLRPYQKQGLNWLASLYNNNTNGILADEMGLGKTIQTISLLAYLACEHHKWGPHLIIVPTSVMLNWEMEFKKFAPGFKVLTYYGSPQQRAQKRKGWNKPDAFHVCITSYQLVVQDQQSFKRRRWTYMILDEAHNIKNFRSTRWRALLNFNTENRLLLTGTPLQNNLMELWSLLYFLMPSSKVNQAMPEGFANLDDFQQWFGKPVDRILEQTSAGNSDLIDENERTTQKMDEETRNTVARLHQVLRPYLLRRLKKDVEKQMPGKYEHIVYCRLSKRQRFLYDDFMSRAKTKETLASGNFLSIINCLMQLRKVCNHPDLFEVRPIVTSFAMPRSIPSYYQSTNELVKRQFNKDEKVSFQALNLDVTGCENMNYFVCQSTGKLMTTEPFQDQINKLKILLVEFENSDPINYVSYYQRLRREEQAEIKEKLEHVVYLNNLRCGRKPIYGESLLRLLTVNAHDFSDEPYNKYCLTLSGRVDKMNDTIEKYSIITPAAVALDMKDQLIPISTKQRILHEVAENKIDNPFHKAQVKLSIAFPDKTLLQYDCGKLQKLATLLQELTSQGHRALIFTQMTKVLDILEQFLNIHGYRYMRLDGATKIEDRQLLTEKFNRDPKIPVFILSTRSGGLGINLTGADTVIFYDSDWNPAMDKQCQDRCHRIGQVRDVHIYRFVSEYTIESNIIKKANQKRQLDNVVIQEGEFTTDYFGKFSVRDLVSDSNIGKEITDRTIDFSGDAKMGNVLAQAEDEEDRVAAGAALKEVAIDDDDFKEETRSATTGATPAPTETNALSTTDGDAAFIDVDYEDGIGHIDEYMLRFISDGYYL

Experiments:
Yaf9-Myc (C. albicans) [1] = target: T1, Yaf9-Myc (C. albicans) (UniProt Q59LC9); assay: co-IP; whole-cell extracts of C. albicans carrying Myc- and HA-tagged proteins; yeast state (YPD, 25 °C), also time courses of yeast-to-hypha and hypha-to-yeast transition and deletion mutants eaf7, yng2, bdf1; anti-Myc or anti-HA antibody on protein A-Sepharose, 4 °C, 4 h; 50 mM HEPES pH 7.5, 140 mM NaCl, 1 mM EDTA, 1% Triton X-100, 0.1% sodium deoxycholate
T1 sequence: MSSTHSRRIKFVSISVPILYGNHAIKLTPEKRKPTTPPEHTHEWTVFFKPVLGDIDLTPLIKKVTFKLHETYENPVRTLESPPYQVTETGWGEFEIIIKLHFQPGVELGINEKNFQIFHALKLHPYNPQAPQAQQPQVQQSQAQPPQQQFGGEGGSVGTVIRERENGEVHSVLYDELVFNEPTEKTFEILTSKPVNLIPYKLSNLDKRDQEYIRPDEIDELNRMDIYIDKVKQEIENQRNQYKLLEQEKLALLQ

Yaf9-Myc (C. albicans) [2] = target: T1, Yaf9-Myc (C. albicans); assay: condition: only hyphal state (YPD with 10% serum, 37 °C); co-IP; as a1, but cells in the hyphal state (YPD with 10% serum, 37 °C)

binding (Yaf9-Myc (C. albicans) [1]): binds
Molecule: Swr1-HA (from UniProt Q59U81 1-1641)

binding (Yaf9-Myc (C. albicans) [1]): binds | binding (Yaf9-Myc (C. albicans) [2]): no binding
B1: Esa1-HA (protein, UniProt Q5A7Q2 1-541)
chain: MAVAEIKKEKGSSLSPEPSSPIQILSTEPDANTDIKQEKFTPKDILPGCKVHVSKDGEFRLAEILQEHIKKGRKVFYVHYQDFNKRLDEWIELDRIDFTRSLILPEIKADTKENKSKKKSKSKGQTKLSKNNTTANSTTGTPQPSDGQPIMGDDEMDLENLNVQGLKRPGEEFSREDEIKKLRTSGSMTQNHSEVARVRNLSTIILGEHIIEPWYFSPYPIELTEEDEIYICDFTLSYFGSKKQFERFRSKCSMKHPPGNEIYRDSKVSFWEIDGRKQRTWCRNLCLLSKLFLDHKTLYYDVDPFLFYIMTIKSDQGHHVVGYFSKEKESADGYNVACILTLPCYQKRGFGKLLIQFSYMLTKVERKVGSPEKPLSDLGLLSYRAYWTDTLVKLLVERNSPALFRKNNSQLEYDEAENGKDSSATPTPGPGSNASQSSILASAAASRSGLNSSPIFSNEITIEDISSITCMTTTDILHTLTTLQMLRYYKGQHIIVLTDQIMELYEKLVKKVKEKKKHELNPKLLHWTPPSFTANQLRFGW
